Experimental findings from paper PMC8797470, “Disruption of the pentraxin 3/CD44 interaction as an efficient therapy for triple‐negative breast cancers” (Clinical and Translational Medicine, 2022) are described below.

Sequences of proteins named here, by UniProt entry; tags and fusion partners are left off. Residues count along the entry.
UniProt P16070, residues 21-742: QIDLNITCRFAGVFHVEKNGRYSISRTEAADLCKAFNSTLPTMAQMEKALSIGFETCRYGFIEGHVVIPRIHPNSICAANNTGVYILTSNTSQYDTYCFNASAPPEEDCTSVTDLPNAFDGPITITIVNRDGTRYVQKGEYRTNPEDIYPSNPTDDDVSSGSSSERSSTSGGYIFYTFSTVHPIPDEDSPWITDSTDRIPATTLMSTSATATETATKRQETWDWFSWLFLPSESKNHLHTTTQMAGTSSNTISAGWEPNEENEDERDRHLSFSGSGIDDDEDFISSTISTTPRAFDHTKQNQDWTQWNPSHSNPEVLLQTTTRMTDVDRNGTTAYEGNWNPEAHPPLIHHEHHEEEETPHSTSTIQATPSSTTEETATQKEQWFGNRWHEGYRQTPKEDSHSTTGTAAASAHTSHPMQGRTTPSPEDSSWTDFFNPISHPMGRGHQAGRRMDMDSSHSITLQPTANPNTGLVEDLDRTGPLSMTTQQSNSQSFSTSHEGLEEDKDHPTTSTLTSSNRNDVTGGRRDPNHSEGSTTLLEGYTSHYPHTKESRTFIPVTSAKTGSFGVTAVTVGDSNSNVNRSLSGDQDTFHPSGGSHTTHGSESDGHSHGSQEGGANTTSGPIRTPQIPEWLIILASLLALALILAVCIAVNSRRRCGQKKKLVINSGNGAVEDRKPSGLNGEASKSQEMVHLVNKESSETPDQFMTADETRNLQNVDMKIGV
UniProt P26022, residues 18-381: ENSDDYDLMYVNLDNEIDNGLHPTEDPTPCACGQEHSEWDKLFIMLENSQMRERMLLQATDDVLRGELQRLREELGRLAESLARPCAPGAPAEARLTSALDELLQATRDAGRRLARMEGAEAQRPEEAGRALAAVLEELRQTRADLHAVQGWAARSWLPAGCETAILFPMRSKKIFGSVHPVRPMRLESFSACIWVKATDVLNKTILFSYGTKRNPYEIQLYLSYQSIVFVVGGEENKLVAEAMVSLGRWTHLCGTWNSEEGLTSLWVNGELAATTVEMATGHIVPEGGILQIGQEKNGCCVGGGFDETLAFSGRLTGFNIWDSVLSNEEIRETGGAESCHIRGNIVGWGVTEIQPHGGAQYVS

Assay [1] has as its target CD44 of MDA-MB-231 cells (human (endogenous in MDA-MB-231)) (UniProt P16070). The assay can be described thus: proximity ligation; MDA-MB-231 cells on coverslips treated with or without His-PTX3 for 1 h, fixed; anti-His and anti-CD44 (active form) antibodies; puncta per cell counted; only the binder purified.
Assay [2] shares this target. The assay can be described thus: co-IP; MDA-MB-231 membrane proteins (Mem-PER Plus kit) incubated with His-PTX3, then with PTX3 antibody or CD44 antibody at 4°C overnight, protein-A/G agarose, RIPA washes, Western blot; IgG as negative control; only the binder purified.

Results are given in words; binding and its absence hold for the method and conditions named. In cells and extracts the contact can be indirect. Some binding calls cover weakened binding; strength is not graded here.

With “recombinant His/PTX3 (pentraxin 3) from Expi293F human cells (from UniProt P26022 18-381) (ligand)”, the binding entry in assay [1] and in assay [2] was “binds” in each case.
